The assay deals with ARNT (mouse (endogenous in EL-4)) (UniProt P53762). The assay is described as follows: co-IP; EL-4 cells treated 24 h with alpinetin (30 uM), TCDD (5 nM), siAhR, CH223191 (10 uM), siAhR + alpinetin or CH223191 + alpinetin; lysed in RIPA buffer; 1 ug antibody against HSP90 or ARNT at 4 C overnight, protein A + G agarose, 4 washes with RIPA, western blotting.

By UniProt entry, the sequences of proteins in these tests, tags left out. Residues count along the entry.
UniProt P53762: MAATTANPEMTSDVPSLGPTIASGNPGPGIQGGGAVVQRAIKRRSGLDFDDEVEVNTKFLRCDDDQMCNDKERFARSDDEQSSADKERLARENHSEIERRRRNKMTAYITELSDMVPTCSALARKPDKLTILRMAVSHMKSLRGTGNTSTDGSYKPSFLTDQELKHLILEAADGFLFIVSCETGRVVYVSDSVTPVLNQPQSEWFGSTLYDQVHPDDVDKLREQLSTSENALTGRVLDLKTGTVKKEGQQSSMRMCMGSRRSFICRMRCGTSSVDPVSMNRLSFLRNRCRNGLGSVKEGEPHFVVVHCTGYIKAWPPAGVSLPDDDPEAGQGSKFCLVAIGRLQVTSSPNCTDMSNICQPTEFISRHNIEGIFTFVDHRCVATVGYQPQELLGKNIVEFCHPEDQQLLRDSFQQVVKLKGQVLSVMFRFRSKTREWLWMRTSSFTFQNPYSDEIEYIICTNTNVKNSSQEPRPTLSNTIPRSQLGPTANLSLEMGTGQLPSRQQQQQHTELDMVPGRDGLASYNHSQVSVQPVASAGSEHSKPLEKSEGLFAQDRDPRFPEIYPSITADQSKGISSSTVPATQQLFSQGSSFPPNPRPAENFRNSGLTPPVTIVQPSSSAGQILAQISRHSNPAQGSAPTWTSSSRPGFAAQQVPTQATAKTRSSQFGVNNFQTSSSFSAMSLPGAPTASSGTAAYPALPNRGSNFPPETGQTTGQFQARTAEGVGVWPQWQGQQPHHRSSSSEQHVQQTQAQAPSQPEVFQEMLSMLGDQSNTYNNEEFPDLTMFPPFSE
UniProt P30561, residues 10-848: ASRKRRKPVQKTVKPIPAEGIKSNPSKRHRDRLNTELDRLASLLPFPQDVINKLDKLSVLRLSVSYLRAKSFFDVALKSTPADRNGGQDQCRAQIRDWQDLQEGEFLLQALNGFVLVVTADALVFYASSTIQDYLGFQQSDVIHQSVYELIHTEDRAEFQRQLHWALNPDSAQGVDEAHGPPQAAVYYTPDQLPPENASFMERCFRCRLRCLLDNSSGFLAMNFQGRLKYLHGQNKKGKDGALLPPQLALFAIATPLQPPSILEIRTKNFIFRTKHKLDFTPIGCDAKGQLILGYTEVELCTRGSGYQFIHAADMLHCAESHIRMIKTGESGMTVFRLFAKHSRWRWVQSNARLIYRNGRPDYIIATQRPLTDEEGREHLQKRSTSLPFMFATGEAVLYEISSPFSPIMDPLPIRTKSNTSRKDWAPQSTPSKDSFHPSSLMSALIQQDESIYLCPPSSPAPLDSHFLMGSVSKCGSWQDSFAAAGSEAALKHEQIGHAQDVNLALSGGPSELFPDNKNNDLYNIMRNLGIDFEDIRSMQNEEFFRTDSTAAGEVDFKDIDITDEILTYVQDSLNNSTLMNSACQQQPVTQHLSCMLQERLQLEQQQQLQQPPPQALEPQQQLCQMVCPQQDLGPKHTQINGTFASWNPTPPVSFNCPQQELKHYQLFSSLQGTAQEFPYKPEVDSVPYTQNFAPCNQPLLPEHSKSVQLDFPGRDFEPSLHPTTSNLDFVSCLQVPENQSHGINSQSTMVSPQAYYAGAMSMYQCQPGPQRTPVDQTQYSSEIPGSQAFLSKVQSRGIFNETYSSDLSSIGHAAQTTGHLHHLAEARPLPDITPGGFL

These are yes or no findings as the source states them, for the method shown. In cells and extracts the contact can be indirect. Some binding calls cover weakened binding; strength is not graded here.

For the substance “Aryl hydrocarbon receptor (from UniProt P30561 10-848)”, the binding entry is “binds”.

(Values after paper PMC6117360.)
